Here are results for one sequence from article PMC5996148.

Among the test systems are TXNDC1 (human); TXNDC9 (human); TXNL4B (human); Tachykinin-3 (human); Tesmin (human); Transaldolase (human).
What all share (experiment): protein microarray (ProtoArray v5.0), streptavidin-Alexa Fluor 647
Holding throughout (settings): 3'-biotin; 20 mM Tris (pH 7.5), 5 mM MgCl2, 100 mM KCl, 0.1% Tween-20, A/T-rich and random oligonucleotide blockers; temperature not stated; high values mean tight binding

For assay [1], the system named is Taste receptor type 2 member 60 (human).
Assay [2] deals with Tetratricopeptide repeat protein 1 (human).
Assay [3] concerns Thymosin beta-4, Y-chromosomal (human).
Assay [4] deals with Thyroid receptor-interacting protein 11 (human).
The subject of assay [5] is Trafficking protein particle complex subunit 6A (human).
Assay [6] has as its system Transcription initiation factor TFIID subunit 8 (human).
Assay [7] has as its system Transmembrane 4 L6 family member 1 (human).
Assay [8] has as its system Transmembrane protein 107 (human).
Assay [9] concerns Transmembrane protein 156 (human).
In assay [10] the test system is Transmembrane protein 203 (human).
The test system of assay [11] is Transmembrane protein 43 (human).
In assay [12] the test system is Transmembrane protein 86B (human).
For assay [13], the system named is Tubulin-specific chaperone D (human).
Assay [14] has as its system Tumor protein D52 (human).

This is one part of the list.

Take “GGTGACAGGGGTATGGGGAGGGG [G4-2 biotinylated (Ct1)]”: the binding signal in the assay with TXNDC1 (human) is -0.375 z-score; with TXNDC9 (human) it was -0.395 z-score; with TXNL4B (human) it was -0.377 z-score; in the assay with Tachykinin-3 (human) it was -0.38 z-score; in [1], -0.367 z-score; with Tesmin (human) it was -0.388 z-score. The binding signal is -0.388 z-score in assay [2]; -0.392 z-score in assay [3]; -0.385 z-score in assay [4]; -0.375 z-score in assay [5]; -0.394 z-score in the assay with Transaldolase (human); -0.385 z-score in assay [6]. Besides, the binding signal in assay [7] is -0.359 z-score; in [8] it was -0.385 z-score; in assay [9] it was -0.393 z-score; in assay [10] it was -0.392 z-score; in assay [11] it was -0.376 z-score; in assay [12], -0.373 z-score. The results for the binding signal in [13] and in assay [14] were -0.392 z-score and -0.399 z-score, respectively.
